Source: PMC4511861
Results are given in words; binding and its absence hold for the method and conditions named. Binding seen in cells or lysates may run through a third protein. Some binding calls cover weakened binding; strength is not graded here. Where a sequence is shown, tags or fusion partners need not be part of it.

The chains behind the UniProt entries cited, without tags or fusion partners. Where a name states a change or a piece, a line headed by the entry shows the natural chain unless it says otherwise. A line that says so, or that is headed by a name, gives the form on record, which may keep a tag or linker.
UniProt P27708: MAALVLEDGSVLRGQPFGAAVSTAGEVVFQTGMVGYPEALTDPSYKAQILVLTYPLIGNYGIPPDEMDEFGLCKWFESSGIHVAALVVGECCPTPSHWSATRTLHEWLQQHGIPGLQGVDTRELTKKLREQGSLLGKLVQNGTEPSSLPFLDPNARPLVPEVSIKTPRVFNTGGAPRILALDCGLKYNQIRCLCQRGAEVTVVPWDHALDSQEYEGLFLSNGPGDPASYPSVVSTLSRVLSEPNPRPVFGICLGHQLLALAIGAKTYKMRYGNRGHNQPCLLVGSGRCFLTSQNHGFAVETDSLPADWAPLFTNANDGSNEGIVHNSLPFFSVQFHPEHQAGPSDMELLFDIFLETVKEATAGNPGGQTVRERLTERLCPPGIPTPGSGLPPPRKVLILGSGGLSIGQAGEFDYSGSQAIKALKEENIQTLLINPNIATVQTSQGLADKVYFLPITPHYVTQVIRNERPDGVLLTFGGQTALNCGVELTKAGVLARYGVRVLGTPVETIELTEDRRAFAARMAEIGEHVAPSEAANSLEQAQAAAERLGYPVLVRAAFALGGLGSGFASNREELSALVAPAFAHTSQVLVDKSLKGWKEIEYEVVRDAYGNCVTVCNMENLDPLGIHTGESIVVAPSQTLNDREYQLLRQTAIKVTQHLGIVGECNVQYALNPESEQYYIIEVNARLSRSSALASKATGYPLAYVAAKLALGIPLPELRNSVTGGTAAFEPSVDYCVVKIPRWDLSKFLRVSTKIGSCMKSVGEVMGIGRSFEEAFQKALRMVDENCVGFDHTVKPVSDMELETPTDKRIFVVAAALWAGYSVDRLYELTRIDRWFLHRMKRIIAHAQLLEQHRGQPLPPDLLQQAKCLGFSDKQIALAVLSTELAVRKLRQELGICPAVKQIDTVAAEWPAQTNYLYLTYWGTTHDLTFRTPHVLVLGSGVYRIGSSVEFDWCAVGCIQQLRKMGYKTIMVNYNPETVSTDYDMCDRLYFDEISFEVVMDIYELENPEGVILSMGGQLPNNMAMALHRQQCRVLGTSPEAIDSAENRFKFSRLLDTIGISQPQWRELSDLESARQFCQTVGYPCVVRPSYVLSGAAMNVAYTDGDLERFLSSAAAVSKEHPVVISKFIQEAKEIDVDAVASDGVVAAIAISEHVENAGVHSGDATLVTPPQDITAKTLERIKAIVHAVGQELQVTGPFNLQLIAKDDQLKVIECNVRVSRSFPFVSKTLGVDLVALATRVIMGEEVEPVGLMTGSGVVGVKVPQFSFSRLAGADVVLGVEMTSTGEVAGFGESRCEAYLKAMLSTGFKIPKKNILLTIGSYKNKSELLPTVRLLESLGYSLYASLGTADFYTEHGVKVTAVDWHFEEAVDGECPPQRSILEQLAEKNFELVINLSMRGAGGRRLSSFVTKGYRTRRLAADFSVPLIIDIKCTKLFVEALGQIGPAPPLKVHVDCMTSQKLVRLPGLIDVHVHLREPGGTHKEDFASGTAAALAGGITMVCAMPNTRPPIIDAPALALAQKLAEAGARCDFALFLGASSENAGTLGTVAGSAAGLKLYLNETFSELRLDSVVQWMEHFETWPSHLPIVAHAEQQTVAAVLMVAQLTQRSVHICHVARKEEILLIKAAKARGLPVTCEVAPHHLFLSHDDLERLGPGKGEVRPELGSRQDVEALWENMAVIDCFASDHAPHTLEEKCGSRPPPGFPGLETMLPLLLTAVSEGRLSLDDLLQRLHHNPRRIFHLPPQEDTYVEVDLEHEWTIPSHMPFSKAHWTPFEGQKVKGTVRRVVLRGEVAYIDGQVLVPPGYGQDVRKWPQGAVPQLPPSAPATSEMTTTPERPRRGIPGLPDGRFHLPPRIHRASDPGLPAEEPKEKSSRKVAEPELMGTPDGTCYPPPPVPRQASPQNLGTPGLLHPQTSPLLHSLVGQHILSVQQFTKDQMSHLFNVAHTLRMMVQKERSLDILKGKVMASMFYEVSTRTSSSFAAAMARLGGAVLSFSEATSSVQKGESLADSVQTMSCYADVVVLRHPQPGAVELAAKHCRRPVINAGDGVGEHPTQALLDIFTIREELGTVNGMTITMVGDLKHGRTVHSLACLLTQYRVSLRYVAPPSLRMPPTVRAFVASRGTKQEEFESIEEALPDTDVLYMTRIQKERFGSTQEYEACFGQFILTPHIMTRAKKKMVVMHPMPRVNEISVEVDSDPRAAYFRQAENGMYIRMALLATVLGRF
CAD Ser1859 to alanine (P27708, form named): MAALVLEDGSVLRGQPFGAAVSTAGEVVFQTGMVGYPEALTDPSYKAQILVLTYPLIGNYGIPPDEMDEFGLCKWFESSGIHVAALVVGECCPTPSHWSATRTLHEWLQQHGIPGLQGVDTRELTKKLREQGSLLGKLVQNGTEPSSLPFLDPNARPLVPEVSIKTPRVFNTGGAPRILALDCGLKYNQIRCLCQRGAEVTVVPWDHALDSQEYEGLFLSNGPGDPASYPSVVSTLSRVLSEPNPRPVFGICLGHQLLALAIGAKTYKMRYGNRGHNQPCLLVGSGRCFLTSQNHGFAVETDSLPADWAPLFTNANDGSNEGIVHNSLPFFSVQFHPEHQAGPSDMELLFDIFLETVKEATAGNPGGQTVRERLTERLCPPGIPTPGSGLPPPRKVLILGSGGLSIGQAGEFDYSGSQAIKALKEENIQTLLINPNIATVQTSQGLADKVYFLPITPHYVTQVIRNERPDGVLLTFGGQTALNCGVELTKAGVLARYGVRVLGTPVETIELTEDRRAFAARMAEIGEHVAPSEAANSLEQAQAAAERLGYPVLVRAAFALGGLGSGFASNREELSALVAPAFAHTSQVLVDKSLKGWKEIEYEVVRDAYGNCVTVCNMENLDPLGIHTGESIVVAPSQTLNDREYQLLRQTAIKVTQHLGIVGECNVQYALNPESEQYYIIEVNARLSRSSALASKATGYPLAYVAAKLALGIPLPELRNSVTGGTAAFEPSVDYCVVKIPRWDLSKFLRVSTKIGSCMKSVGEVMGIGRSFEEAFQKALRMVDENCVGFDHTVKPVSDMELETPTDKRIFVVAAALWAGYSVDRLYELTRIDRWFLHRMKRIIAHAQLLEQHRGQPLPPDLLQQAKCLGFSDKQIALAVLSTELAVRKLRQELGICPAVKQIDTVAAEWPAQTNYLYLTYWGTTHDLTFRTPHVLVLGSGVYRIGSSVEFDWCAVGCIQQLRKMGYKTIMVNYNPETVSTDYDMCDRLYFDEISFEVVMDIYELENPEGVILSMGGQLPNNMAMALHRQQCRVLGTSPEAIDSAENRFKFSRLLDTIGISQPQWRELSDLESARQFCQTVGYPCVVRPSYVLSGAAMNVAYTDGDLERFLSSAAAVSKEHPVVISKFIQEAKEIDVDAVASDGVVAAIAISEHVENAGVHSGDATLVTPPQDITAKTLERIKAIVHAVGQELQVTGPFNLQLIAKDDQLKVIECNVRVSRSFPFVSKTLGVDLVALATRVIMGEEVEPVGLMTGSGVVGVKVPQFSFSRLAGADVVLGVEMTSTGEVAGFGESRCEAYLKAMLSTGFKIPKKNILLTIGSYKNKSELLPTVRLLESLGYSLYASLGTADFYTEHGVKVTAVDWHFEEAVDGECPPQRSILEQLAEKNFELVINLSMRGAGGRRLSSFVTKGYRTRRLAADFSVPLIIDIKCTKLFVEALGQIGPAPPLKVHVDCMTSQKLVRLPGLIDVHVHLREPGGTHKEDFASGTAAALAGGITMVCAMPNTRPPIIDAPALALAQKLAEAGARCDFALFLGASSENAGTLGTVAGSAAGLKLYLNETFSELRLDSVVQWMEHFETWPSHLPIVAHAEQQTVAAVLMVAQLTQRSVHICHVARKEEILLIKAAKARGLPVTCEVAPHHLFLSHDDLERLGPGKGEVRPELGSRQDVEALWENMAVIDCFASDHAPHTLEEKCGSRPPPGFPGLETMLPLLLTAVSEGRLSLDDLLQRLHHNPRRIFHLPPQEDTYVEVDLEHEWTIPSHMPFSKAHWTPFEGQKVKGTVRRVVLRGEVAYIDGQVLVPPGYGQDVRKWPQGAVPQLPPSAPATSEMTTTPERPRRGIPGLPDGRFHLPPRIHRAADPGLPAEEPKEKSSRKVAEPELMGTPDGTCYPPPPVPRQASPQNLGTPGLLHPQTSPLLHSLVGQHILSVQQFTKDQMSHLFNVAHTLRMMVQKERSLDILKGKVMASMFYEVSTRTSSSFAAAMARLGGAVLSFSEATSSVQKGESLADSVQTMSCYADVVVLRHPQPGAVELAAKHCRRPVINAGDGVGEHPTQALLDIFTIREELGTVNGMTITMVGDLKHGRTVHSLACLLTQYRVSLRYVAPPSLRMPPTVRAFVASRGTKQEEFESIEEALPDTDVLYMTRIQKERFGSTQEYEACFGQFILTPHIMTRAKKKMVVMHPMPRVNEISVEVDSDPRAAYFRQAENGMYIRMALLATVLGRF
UniProt P0DMV8: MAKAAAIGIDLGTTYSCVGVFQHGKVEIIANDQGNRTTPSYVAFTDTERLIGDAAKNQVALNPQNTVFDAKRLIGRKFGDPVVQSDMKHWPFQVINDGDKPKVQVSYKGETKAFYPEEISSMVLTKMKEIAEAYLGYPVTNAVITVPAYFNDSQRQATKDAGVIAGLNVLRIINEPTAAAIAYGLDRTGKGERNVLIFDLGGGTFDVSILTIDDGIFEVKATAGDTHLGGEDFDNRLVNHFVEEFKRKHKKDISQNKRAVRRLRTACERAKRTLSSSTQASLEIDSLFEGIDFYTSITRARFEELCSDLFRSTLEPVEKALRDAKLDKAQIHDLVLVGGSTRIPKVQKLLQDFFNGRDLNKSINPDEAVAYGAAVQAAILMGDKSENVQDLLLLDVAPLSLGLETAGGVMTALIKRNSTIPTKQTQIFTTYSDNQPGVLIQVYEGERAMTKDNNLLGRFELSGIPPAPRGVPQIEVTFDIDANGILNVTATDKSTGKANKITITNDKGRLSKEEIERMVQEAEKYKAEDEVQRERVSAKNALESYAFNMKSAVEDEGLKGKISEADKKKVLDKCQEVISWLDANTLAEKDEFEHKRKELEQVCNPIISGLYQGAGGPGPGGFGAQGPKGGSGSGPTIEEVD
UniProt P23443: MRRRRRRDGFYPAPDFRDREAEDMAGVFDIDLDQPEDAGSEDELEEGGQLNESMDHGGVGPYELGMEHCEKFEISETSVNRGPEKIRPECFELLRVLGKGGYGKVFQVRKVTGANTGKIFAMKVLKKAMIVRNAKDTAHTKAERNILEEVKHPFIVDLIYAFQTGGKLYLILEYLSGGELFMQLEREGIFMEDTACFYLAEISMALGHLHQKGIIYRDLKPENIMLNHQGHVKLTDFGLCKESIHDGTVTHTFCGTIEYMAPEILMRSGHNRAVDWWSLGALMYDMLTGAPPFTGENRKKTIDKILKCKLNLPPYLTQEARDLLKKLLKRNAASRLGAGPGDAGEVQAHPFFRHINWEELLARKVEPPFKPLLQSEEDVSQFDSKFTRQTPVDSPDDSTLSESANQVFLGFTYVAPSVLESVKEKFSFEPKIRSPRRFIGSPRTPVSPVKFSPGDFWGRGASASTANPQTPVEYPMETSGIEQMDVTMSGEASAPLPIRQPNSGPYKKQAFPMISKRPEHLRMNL
UniProt P23258: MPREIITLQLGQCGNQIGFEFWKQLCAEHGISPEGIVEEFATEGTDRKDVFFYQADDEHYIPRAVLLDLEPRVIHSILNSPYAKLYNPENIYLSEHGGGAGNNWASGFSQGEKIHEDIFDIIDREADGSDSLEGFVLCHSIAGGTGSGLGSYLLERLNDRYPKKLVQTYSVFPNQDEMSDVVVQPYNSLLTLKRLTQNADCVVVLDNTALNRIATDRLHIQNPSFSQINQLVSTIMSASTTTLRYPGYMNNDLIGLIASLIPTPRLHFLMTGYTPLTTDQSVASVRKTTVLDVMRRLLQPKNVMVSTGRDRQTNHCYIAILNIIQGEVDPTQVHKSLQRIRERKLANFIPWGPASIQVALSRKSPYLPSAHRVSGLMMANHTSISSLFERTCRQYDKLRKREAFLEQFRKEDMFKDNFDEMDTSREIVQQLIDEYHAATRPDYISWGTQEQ

B1: β-tubulin 4B (TUBB4B), P68371 1-445 (protein)
chain: MREIVHLQAGQCGNQIGAKFWEVISDEHGIDPTGTYHGDSDLQLERINVYYNEATGGKYVPRAVLVDLEPGTMDSVRSGPFGQIFRPDNFVFGQSGAGNNWAKGHYTEGAELVDSVLDVVRKEAESCDCLQGFQLTHSLGGGTGSGMGTLLISKIREEYPDRIMNTFSVVPSPKVSDTVVEPYNATLSVHQLVENTDETYCIDNEALYDICFRTLKLTTPTYGDLNHLVSATMSGVTTCLRFPGQLNADLRKLAVNMVPFPRLHFFMPGFAPLTSRGSQQYRALTVPELTQQMFDAKNMMAACDPRHGRYLTVAAVFRGRMSMKEVDEQMLNVQNKNSSYFVEWIPNNVKTAVCDIPPRGLKMSATFIGNSTAIQELFKRISEQFTAMFRRKAFLHWYTGEGMDEMEFTEAESNMNDLVSEYQQYQDATAEEEGEFEEEAEEEVA

The molecules below were run against T1, N-terminal FLAG-WDR73 wild-type fusion protein (human) (UniProt Q6P4I2) (assay: co-IP; FLAG-WDR73 and recombinant CAD construct co-overexpressed in HEK-293T; anti-FLAG M2 affinity gel, elution with 3x FLAG peptide, immunoblot). Details: not given.
T1 sequence: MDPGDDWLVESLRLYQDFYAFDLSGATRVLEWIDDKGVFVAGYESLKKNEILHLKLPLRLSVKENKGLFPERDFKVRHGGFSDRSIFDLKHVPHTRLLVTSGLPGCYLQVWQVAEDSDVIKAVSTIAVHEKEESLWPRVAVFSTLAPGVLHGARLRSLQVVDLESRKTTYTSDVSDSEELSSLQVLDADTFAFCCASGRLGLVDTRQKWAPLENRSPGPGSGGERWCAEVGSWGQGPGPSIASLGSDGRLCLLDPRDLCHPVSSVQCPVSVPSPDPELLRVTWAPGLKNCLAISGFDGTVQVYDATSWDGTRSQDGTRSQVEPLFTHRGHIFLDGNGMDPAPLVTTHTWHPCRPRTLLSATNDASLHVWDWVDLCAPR

binding, binds:
CAD Ser1859 to alanine (from UniProt P27708 1-2225) (enzyme)
recombinant C-terminal V5 CAD fusion protein (from UniProt P27708 1-2225) (enzyme)

Each molecule was assayed against T1, N-terminal FLAG-WDR73 wild-type fusion protein (human) (assay: co-IP; FLAG-WDR73 constructs overexpressed in HEK-293T; clarified lysate on anti-FLAG M2 affinity gel 2 h at 4°C, 3-4 washes of 15 min with 2.5-5% Tween-20, elution with 3x FLAG peptide; endogenous partners detected by immunoblot). Details: not given.

binding, binds:
CAD (carbamoyl-phosphate synthetase 2, aspartate transcarbamylase, and dihydroorotase), endogenous (from UniProt P27708 1-2225) (enzyme)
heat shock 70-kDa protein 1A/1B (HSP-70) (from UniProt P0DMV8 1-641)
heat shock protein HSP90 alpha isoform 2 (HSP-90) (from UniProt P07900 1-732)
p70 S6 kinase (RPS6KB1) (from UniProt P23443 1-525) (enzyme)
phospho-Ser1859 CAD, endogenous (from UniProt P27708 1-2225) (enzyme)
γ-tubulin (TUBG1) (from UniProt P23258 1-451)

Molecular target: T2, N-terminal FLAG-WDR73 wild-type fusion protein (human), Q6P4I2
T2 chain: T1 sequence
Test: as above
Details: remark: other sources report otherwise

binding, binds:
B1
